Laboratory results published in PMC7646191.
Results are given in words; binding and its absence hold for the method and conditions named. Binding seen in cells or lysates may run through a third protein.

Chains of the proteins cited; added tags and fusions are not shown.
UniProt P04150: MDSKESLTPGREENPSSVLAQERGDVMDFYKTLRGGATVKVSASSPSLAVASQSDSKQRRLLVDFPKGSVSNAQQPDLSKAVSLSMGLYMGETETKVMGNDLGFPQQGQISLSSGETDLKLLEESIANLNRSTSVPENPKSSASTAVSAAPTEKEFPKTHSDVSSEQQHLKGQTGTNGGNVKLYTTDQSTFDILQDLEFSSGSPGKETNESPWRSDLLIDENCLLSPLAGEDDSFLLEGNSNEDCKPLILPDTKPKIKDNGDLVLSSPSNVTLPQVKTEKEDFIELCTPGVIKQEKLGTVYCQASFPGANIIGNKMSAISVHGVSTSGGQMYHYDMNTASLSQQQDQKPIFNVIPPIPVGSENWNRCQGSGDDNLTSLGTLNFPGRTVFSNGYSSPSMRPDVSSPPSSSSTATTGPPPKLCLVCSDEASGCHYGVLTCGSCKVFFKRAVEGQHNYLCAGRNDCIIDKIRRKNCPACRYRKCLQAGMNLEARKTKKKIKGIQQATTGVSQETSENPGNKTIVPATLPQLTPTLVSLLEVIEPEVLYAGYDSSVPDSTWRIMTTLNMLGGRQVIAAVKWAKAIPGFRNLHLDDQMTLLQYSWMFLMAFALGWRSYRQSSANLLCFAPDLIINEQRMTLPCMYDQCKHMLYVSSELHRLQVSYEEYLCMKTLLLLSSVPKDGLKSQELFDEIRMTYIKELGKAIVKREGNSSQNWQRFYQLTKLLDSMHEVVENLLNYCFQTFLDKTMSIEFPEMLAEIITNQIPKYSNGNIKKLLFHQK
UniProt Q16665: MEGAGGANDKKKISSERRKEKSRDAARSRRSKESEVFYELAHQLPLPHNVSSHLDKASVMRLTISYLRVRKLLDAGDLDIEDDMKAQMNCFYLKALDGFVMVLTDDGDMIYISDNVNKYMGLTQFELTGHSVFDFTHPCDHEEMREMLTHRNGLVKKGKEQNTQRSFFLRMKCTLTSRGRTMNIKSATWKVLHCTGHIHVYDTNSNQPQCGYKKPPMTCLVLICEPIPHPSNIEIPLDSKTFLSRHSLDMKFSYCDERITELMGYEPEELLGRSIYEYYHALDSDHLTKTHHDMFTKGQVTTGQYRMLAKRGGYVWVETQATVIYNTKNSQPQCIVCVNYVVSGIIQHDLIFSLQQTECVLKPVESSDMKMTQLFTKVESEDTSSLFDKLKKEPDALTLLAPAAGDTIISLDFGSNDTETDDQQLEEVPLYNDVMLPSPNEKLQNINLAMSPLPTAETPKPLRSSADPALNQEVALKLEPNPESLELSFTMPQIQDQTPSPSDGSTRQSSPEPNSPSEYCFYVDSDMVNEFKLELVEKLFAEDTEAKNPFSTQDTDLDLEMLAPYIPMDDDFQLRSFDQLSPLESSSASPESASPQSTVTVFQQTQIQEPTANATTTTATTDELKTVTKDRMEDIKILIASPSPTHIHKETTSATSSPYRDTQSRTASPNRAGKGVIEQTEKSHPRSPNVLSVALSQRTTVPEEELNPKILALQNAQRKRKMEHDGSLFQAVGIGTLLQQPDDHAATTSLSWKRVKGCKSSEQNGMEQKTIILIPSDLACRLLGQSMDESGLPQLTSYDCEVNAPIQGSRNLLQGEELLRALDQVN

Biological target: glucocorticoid receptor (human (endogenous in HeLa)) (UniProt P04150)
Experiment: co-IP; HeLa cells (transfected with HIF-1α per methods; treated with deferoxamine per legend), with or without 100 nM dexamethasone for 1 h, lysed in RIPA buffer; GR immunoprecipitated with GR antibody (IgG as control) on Protein A Sepharose overnight at 4 °C; immunoblotted for HIF-1α

binding: no binding
Substance: HIF-1α (from UniProt Q16665 1-826)
